# From patent publication US20220033397A1, “PHARMACEUTICAL COMPOUNDS AND THEIR USE AS INHIBITORS OF UBIQUITIN SPECIFIC PROTEASE 19 (USP19)” (ALMAC DISCOVERY LIMITED, priority 2018, published 2022)
# For at least one compound, name, drawing or mass did not settle the structure.
# Test system: diet-induced obese (DIO) mouse
# Test: Diet-induced obese (DIO) mouse model: body weight, DEXA body composition, carcass composition, food intake
# Format: in vivo
# Details: Liraglutide 0.1 mg/kg sc bid
# [1] = ADC-141 25 mg/kg ip bid, vs vehicle
# [2] = high-fat diet, ADC-141 25 mg/kg ip bid, vs vehicle
structure (smiles),measurement,setting,value
"CCCCCCCCCCCCCCCC(=O)N[C@@H](CCC(=O)NCCCC[C@H](NC(=O)[C@H](C)NC(=O)[C@H](C)NC(=O)[C@H](CCC(N)=O)NC(=O)CNC(=O)[C@H](CCC(=O)O)NC(=O)[C@H](CC(C)C)NC(=O)[C@H](Cc1ccc(O)cc1)NC(=O)[C@H](CO)NC(=O)[C@H](CO)NC(=O)[C@@H](NC(=O)[C@H](CC(=O)O)NC(=O)[C@H](CO)NC(=O)[C@@H](NC(=O)[C@H](Cc1ccccc1)NC(=O)[C@@H](NC(=O)CNC(=O)[C@H](CCC(=O)O)NC(=O)[C@H](C)NC(=O)[C@@H](N)Cc1cnc[nH]1)[C@@H](C)O)[C@@H](C)O)C(C)C)C(=O)N[C@@H](CCC(=O)O)C(=O)N[C@@H](Cc1ccccc1)C(=O)N[C@H](C(=O)N[C@@H](C)C(=O)N[C@@H](Cc1c[nH]c2ccccc12)C(=O)N[C@@H](CC(C)C)C(=O)N[C@H](C(=O)N[C@@H](CCCNC(=N)N)C(=O)NCC(=O)N[C@@H](CCCNC(=N)N)C(=O)NCC(=O)O)C(C)C)[C@@H](C)CC)C(=O)O [Liraglutide, liraglutide]",differences in body weights on the final day of the study,ADC-141 25 mg/kg ip bid,~13%
same,loss of fat as share of the total weight lost,ADC-141 25 mg/kg ip bid,60%
same,"percent protein (percentage of total carcass mass), increase",ADC-141 25 mg/kg ip bid,5.7%
same,reduction in carcass fat (g) from controls,ADC-141 25 mg/kg ip bid,17.4%
same,"carcass ash content (g), change",[1],−11.6%
same,"carcass protein content (g), change",[1],−7.9%
same,carcass water content (g),[1],−8.6%
same,relative water content of the carcass (percentage of total carcass mass),[1],no effect
same,reduction in lean mass (g) compared to vehicle treated controls,"DEXA, Day 13",8%
same,reduction in fat mass (g) compared to vehicle treated controls,"DEXA, Day 13, dose of USP19 inhibitor not given",19%
same,fat mass % (percentage of total tissue mass),"DEXA, ADC-141 25 mg/kg ip bid",did not significantly change
same,lean mass % (percentage of total tissue mass),"DEXA, ADC-141 25 mg/kg ip bid",did not significantly change
same,"average weekly body weight gain, week 1",[2],significantly decreased
same,"average weekly body weight gain, week 2",[2],but not week 2
same,carcass weight compared to vehicle-treated controls,"two weeks, ADC-141 25 mg/kg ip bid",~−12%
